Test results published in patent US20100099627A1 (YEDA RESEARCH AND DEVELOPMENT, published 2010).
These are yes or no findings as the source states them, for the method shown. Binding seen in cells or lysates may run through a third protein. Some entries that bind do so weakly or less than the wild type. Tags and fused reporters may be left off the sequences shown.

By UniProt entry, the sequences of proteins in these tests, tags left out.
UniProt O95373: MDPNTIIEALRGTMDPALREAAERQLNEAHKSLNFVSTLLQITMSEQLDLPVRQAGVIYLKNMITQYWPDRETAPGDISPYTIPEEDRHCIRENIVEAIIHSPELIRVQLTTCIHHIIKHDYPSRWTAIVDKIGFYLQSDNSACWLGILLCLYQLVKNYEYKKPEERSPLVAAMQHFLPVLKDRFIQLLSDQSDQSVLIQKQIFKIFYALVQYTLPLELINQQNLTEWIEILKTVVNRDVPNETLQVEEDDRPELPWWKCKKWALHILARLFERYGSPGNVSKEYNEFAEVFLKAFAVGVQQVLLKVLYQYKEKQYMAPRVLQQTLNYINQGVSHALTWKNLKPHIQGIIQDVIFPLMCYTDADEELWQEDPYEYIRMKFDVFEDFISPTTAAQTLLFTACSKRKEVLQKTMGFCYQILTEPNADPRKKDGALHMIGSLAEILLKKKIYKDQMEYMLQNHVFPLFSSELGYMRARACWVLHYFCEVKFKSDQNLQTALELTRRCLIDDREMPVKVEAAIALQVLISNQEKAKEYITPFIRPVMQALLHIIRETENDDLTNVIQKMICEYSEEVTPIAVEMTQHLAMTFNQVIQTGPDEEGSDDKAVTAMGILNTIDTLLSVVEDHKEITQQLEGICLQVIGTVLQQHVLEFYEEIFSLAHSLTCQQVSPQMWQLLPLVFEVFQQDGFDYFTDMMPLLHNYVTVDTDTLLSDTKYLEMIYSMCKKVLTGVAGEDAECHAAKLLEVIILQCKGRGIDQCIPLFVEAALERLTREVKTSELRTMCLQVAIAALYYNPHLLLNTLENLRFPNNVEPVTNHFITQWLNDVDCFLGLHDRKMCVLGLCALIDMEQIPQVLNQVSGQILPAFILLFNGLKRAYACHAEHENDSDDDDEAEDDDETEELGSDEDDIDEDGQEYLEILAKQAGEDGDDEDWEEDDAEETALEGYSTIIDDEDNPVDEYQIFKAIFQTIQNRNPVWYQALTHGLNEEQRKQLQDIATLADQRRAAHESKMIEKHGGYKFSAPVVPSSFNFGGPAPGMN

Target: importin-7 (mammalian (e.g. human)) (UniProt O95373)
Experiment: co-immunoprecipitation with anti GFP Ab from HeLa cells, without EGF stimulation

Row | binding | Binder
1 | binds | LDQLNHILGILGSPSQEDL (peptide, not shown: large carriers, SPS peptide phosphorylated upon stimulation with EGF or VOOH) [2GFP-SPS]
2 | binds | LDQLNHILGILGEPEQEDL (peptide, not shown: large carriers) [2GFP-EPE]
